# Whole data set: some 33,000 sequences, median “E-score (-0.5 to 0.5)” near -8e-05, cut for the highest 2% near 0.23. Some of the results follow.
# Target: T1, Nrg2 (UniProt P38082)
# T1 sequence: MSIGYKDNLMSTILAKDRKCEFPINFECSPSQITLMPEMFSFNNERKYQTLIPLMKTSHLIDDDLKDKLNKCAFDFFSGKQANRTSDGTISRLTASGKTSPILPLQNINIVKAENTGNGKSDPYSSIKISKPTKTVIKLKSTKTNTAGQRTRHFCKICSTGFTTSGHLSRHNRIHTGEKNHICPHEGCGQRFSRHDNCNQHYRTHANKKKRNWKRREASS
# Assay: PBM E-score (8-mer binding enrichment) (E-score (-0.5 to 0.5)); higher = stronger / more preferred TF binding
# Settings: protein concentration: 100 nM; construct: GST-full length
# Method in brief: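 Detection of bound protein used fluorescent anti-GST, with scans normalised by masliner. The proteins were GST-tagged yeast transcription factors applied at about 100-200 nM to universal all-10-mer Agilent arrays made double-stranded by primer extension. Each ungapped eight-base word, pooled with its reverse complement, was scored with an E-score from the Universal PBM Analysis Suite.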
row,Sequence,PBM E-score
1,CACTCCGA,-0.0556
2,CCGCAGGA,-0.151
3,CGAGCCTC,-0.209
4,CGCCGATA,0.0331
5,ACGCCTCT,-0.123
6,ACGAAGGC,-0.203
7,ATCGCGCG,0.241
8,ACCGAAGC,-0.0884
9,AGGCGACC,-0.165
10,GATCATCA,-0.123
11,TCACCTGA,-0.0956
12,ATCGATCA,0.103
13,ACAGAAGT,-0.0546
14,CCGTAAAC,0.00547
15,CCATGGAC,0.00514
16,GCCAGCCC,-0.209
17,ATGTGGGA,-0.0781
18,GAACATTC,0.0939
19,GCTGTACA,-0.0814
20,AATTTGCG,0.157
21,CGAGGGTC,0.0765
22,GAGGCGAA,0.106
23,CTTGACAA,0.00685
24,GGCCTGAC,-0.0513
25,ACATTAGG,-0.103

row,Sequence,PBM E-score
1,AAGCTCGT,-0.0751
2,ATTCTTTC,0.0726
3,GAGCGAGA,0.206
4,GACAAGCA,-0.0713
5,CACTGGAA,-0.0187
6,ACTGGAAA,0.00431
7,ACATGGTA,-0.0687
8,AATTATCC,-0.0109
9,CAAGGGCA,-0.0577
10,ACGCCATC,0.0173
11,ATGAGACC,0.105
12,ATCAAAGG,-0.0171
13,CCACCGAA,0.0334
14,ATTCATGA,0.0232
15,GTGTAATA,0.0595
16,ATGGCCAA,-0.0541
17,GCGGGCCA,-0.166
18,CTCTTGTC,0.0639
19,AGATTTAG,0.119
20,TACATTAA,0.144
21,TACTGGGA,-0.0926
22,ACCCGAGG,0.0233
23,AGCGAGGG,-0.0677
24,CGAAAGAA,0.105
25,AGTGCGAC,-0.093

row,Sequence,PBM E-score
1,TGTGTTAA,0.0274
2,ATGGTTTA,0.027
3,CCATTATA,0.0657
4,CTCGTTGC,0.212
5,GTACACAA,0.0665
6,GTACAACA,0.0729
7,CATGCCGG,0.0656
8,ATACATGC,-0.0508
9,CGCGTTCA,0.159
10,GCAGGAAC,-0.0336
11,CTATGACA,-0.012
12,CGTCTTGA,-0.0247
13,ACGATGGC,0.0109
14,AACAGAAA,-0.0499
15,AGCATTAG,-0.0537
16,ATCGTTGA,0.0447
17,CACCTTAG,-0.113
18,ATCGTCAA,-0.0792
19,ACCCACGT,0.0168
20,CTCTCTGC,-0.0868
21,AAACGGTA,0.137
22,ACATTTAT,0.00924
23,GCTCTTTA,-0.00187
24,ACTGAGAA,-0.0694
25,GCAACCCC,-0.148

row,Sequence,PBM E-score
1,ACGGACTC,-0.13
2,CGGGATTA,0.205
3,ATAAATGG,0.0175
4,ATGACGAG,-0.0444
5,CGTATCCA,-0.155
6,GAATAGTA,0.156
7,AACACGCC,-0.0502
8,GGATAAGA,0.0874
9,AGTAAATC,0.227
10,AAGATTGA,-0.00425
11,GAAATGTC,-0.04
12,CGGACAAG,0.122
13,CACTCCCG,-0.163
14,CTAAGAAG,0.0476
15,GAGCGACC,-0.168
16,CAAACCCA,0.132
17,GCTAGTGA,0.0833
18,AGTACCAC,0.0108
19,ACCCTCAT,0.00139
20,CGGCGCAG,-0.0724
21,CCGGTTAG,-0.0403
22,ATACTCCG,0.109
23,TAACAGGA,0.0311
24,AACGAGTG,-0.052
25,CACGCATC,-0.0811

row,Sequence,PBM E-score
1,CGAAATGC,0.109
2,GCCGATAC,0.0979
3,CAACAATA,0.11
4,ACCCCCCT,-0.405
5,AGGATTCA,-0.0415
6,TACTGTCA,0.175
7,CTACCGAA,-0.136
8,CTGGAGTC,-0.228
9,CTCCAAGA,0.036
10,CGCCTAAC,0.0838
11,ACTTCCCG,-0.00327
12,AGTTAGGA,0.0365
13,GGCTAGTA,0.127
14,ACCCTCGT,0.0561
15,CATGGTAA,0.0831
16,AATTGCGC,0.187
17,CTTTCCAC,-0.00076
18,ACGTATAC,0.124
19,GTGCGACA,-0.126
20,AGGAATGA,-0.0278
21,ACGCAAGT,-0.138
22,AGTTAGTC,-0.1
23,CATGGCAC,-0.0253
24,CGCGGGAC,0.176
25,AACATTGA,-0.00836

# Looked up above.
# CGCCGATA – PBM E-score: 0.0331
# CATGCCGG – PBM E-score: 0.0656
# GTACACAA – PBM E-score: 0.0665
# ACCGAAGC – PBM E-score: -0.0884
# TACATTAA – PBM E-score: 0.144
# CTACCGAA – PBM E-score: -0.136
# CGTATCCA – PBM E-score: -0.155

# Following part.

row,Sequence,PBM E-score
1,CCACTCGA,0.119
2,CGTGAGAA,-0.00035
3,CGTATCGA,-0.032
4,CGTGGGCA,-0.232
5,CACTTCCG,-0.0433
6,GACCATCA,-0.04
7,CAAGTTGA,-0.0127
8,CTGCCGCC,-0.278
9,GTTGCCTA,0.0763
10,AAAGTTAA,0.00078
11,ACTTATAC,0.0119
12,AACGGCAG,0.117
13,AAGTAAGT,-0.0409
14,GATCTCGC,0.144
15,CAATTCTC,-0.053
16,ATTGTGTC,0.212
17,GTTGGACA,-0.114
18,ATAGAAAG,0.0273
19,ATTTATTG,0.0706
20,ATACCGCG,0.128
21,GAGCGCTC,0.193
22,TACTATGA,0.185
23,AGTCGGAC,-0.0923
24,ATACCAAA,0.049
25,AACTTCTC,-0.0214

row,Sequence,PBM E-score
1,CCGATTTC,-0.187
2,CCCCGCCC,0.118
3,ACAGATAG,-0.131
4,ATGCACTC,-0.0395
5,GCTGGGTA,0.0249
6,CCATTGAG,-9e-05
7,ACTTATGG,-0.0643
8,AACAGTAT,-0.00385
9,AACGTTCC,-0.0118
10,GGAGTTTA,-0.12
11,CTTGAGAA,-0.0483
12,ATTTCGTA,0.0258
13,AGTTCCTC,-0.0445
14,CCAACCGG,-0.00871
15,ATAGACAC,-0.0891
16,TGGACCAA,-0.0309
17,ACTAATTA,0.226
18,GCCGATCA,0.0742
19,GATTCGAA,0.256
20,ACCGGGCT,-0.246
21,AGATACAC,0.244
22,CATCACAC,0.148
